Some of the results follow.

Amino acid sequences for entries named in this document (tags omitted).
UniProt Q0JBA9, entry or part of it: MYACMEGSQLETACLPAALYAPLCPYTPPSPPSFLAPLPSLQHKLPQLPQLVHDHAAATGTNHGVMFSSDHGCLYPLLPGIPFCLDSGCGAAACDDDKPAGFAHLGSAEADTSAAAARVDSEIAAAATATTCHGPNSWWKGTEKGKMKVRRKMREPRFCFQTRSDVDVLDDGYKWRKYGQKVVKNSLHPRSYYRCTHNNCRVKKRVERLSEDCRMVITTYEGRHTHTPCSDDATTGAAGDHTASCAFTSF

This assay deals with OsWRKY34 (Oryza sativa, UniProt Q0JBA9 1-250). Nature of the assay: protein-binding microarray (RPBM); PBS, 2% BSA, 51.3 ng/ul salmon testes DNA, 50 uM zinc acetate, 200 nM TF, 25 C, 1 h; high values mean tight binding. The note with it: protein: recombinant; tags: N-terminal polyhistidine and DsRed monomer fusion (pET32a); label: CyDye5-dUTP incorporated in the synthesized complementary strand; 3' TTTTT single-stranded linker to array surface; dsDNA, one strand shown. Summed up:
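The binding signal is fluorescence intensity per array feature (arbitrary units). Readings came from an Axon 4000B scanner after a washed, 2% BSA-blocked, double-stranded custom Agilent array had been incubated for 1 h at 25 °C with 200 nM protein and 50 µM zinc acetate. The protein was a Ni–NTA-purified transcription factor fused N-terminally to polyhistidine and DsRed, expressed in E. coli BL21-CodonPlus.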
Consider “CTTCAACTTTCTCGTTTTCCGTCAGCACGCTTTCCAAACTCGGAGTCACCTAGTGCAG”, for which the binding signal is 9080 fluorescence intensity (a.u.).
Under “CTACCAGTTATATCTTTTGCTATGCATAGGCATATCATGTCGGAGTCACCTAGTGCAG” stands 9620 fluorescence intensity (a.u.); under “CGTTCCTTGGTATTCTCCCTCGTGGTGTAAATGTACGTATCGGAGTCACCTAGTGCAG”, 9740 fluorescence intensity (a.u.).
Under “ATCATTCACCCAAATCGTTTGGTTCGCTATCCTCGCGCTCCGGAGTCACCTAGTGCAG” stands 12100 fluorescence intensity (a.u.).
Consider “TGGTGCATTTGCTGCAAATGCTGCTAGTTTTGTTGCTTTTCGGAGTCACCTAGTGCAG”, for which the binding signal is 8520 fluorescence intensity (a.u.).
In the case of “GACTTGATTTTTTTTCTTAATTTGACCTTTTAATTTCAAACGGAGTCACCTAGTGCAG”, the binding signal was 8080 fluorescence intensity (a.u.).
Under “AACATTAACTGTTTTCTTTAGCAACTACTGATCGATACACCGGAGTCACCTAGTGCAG” stands 8100 fluorescence intensity (a.u.); under “GGGGTGGGGTGGAGAGGGTGAAGCGGCGACGGTGACGATGCGGAGTCACCTAGTGCAG”, 9870 fluorescence intensity (a.u.).
Under “CTGCCCCACATCCCCGGGCCCACCTGCCAGTCCCCGCCACCGGAGTCACCTAGTGCAG” stands 9930 fluorescence intensity (a.u.); under “TTCACTCAAATGACTTGCTTTTCGCGCTTCTGGATCAATCCGGAGTCACCTAGTGCAG”, 8800 fluorescence intensity (a.u.).
Under “CGTTGACTCCATCTCTTTAACATATTTTAGGAGCATGCTTCGGAGTCACCTAGTGCAG” stands 8610 fluorescence intensity (a.u.); under “GGCGGATGTGGGGTGAGAAGCATCCGCGCAGCCGCGCGCGCGGAGTCACCTAGTGCAG”, 8720 fluorescence intensity (a.u.).
In the case of “GCTACATCTAGACAAGGGGAGGGCGGTGCATTGGAGACGACGGAGTCACCTAGTGCAG”, the binding signal was 10700 fluorescence intensity (a.u.).
On to “ATGAGTTTTCCTTTTTTTTAAAATCTTTTCTTGAAGGTTTCGGAGTCACCTAGTGCAG”, for which the binding signal was 9510 fluorescence intensity (a.u.).
Under “GCAACTGCACATGTGCTTATTTAGTTTCTGCATTGGTCAACGGAGTCACCTAGTGCAG” stands 12200 fluorescence intensity (a.u.); under “GTAGCACCAGTTAATTTATCTATATATATGTGTGTTTTACCGGAGTCACCTAGTGCAG”, 10600 fluorescence intensity (a.u.); under “ATGCTTGCGAGTCGTCTACATATGCTTGGAATTTTTTTTCCGGAGTCACCTAGTGCAG”, 11900 fluorescence intensity (a.u.).
Under “ACACCTGCGCTCGCATACAACGCTCGACTTCTCTTCTCTCCGGAGTCACCTAGTGCAG” stands 9800 fluorescence intensity (a.u.); under “CATCGAGCGTCCATCATGCGCTTATCATCGACAGTTTCTTCGGAGTCACCTAGTGCAG”, 8040 fluorescence intensity (a.u.); under “CGTCTCGCCGGAGCGTTGACGAGGACCTCTCTACTCTTCACGGAGTCACCTAGTGCAG”, 9020 fluorescence intensity (a.u.).
As to “TACATGGGAGTAGAGGCGGGCGGCGGCTGCGGTGGGAGGGCGGAGTCACCTAGTGCAG”, the binding signal was 10800 fluorescence intensity (a.u.).
Under “CGCTCTACGGCTCACAACCATCGTCAACCAGCTTGCAACCCGGAGTCACCTAGTGCAG” stands 9280 fluorescence intensity (a.u.).
For “ACTCAAAAGATTCGTCATTCGTCTCGCGATTTTCATGTAACGGAGTCACCTAGTGCAG”, the binding signal is 10200 fluorescence intensity (a.u.).
“CCATTAGCGTATGTATTTTTTTCTGGTTCCTATGGGGATCCGGAGTCACCTAGTGCAG”: the binding signal was 8640 fluorescence intensity (a.u.).
Regarding “GACTTACCATCTGACCTTCCCTGGCCTGGCCCAGCTATACCGGAGTCACCTAGTGCAG”, the binding signal was 8970 fluorescence intensity (a.u.).
Under “CAAGCCTCATCATCCGGTTTTCTTCCTTGGTTCCCGCACGCGGAGTCACCTAGTGCAG” stands 10900 fluorescence intensity (a.u.); under “CCCGCTCTCTCCGATCGCTGCCACCAGCTACCGGCCATCGCGGAGTCACCTAGTGCAG”, 9340 fluorescence intensity (a.u.); under “CGCACTGGCCTCCACCCATCTCTCTCACCGCCTCTGCAGCCGGAGTCACCTAGTGCAG”, 8450 fluorescence intensity (a.u.).
For “ACATCCCCGACCCGCCCCGCCTCACCGGTCATTCGCAGCCCGGAGTCACCTAGTGCAG”, the binding signal is 9440 fluorescence intensity (a.u.).
Under “CTGGCTATAAATTTATAGCCCGCTGCTCTTCTCTTTTACTCGGAGTCACCTAGTGCAG” stands 8660 fluorescence intensity (a.u.).
Take “CTCCTCCTCGAGACCTCGGCACCTCGCACGCCACGCTTCTCGGAGTCACCTAGTGCAG”: the binding signal was 9200 fluorescence intensity (a.u.).
Under “TTCCTCCTAACCGTGCAATTAGTTTTTTCATTTATCTATACGGAGTCACCTAGTGCAG” stands 8840 fluorescence intensity (a.u.); under “TCCCTCCGCCGACGGCTCCCTCCTCTCCCACGTCCGCGCACGGAGTCACCTAGTGCAG”, 8350 fluorescence intensity (a.u.).
As to “TACTGTGCACCTTATCACTCAGCCTAAGCTGTCATATAGACGGAGTCACCTAGTGCAG”, the binding signal is 9720 fluorescence intensity (a.u.).
Turning to “GCCTCACCTTTCACTTCATCCATCTCTACACATCAGCAATCGGAGTCACCTAGTGCAG”, the binding signal was 12100 fluorescence intensity (a.u.).
Under “CCAACACAAGCAGAGATGAGGACCGCTTTGACCTCCGTAACGGAGTCACCTAGTGCAG” stands 8430 fluorescence intensity (a.u.); under “CCACTCACCACCACTATCAACACAACTCTTGCATCACCATCGGAGTCACCTAGTGCAG”, 9940 fluorescence intensity (a.u.).
On to “GGAGGCTTCACTGGTGGCGGGGCCGGAGTCGAGGGGTTCTCGGAGTCACCTAGTGCAG”, for which the binding signal was 9360 fluorescence intensity (a.u.).
Under “CAAAGTCCCATTCTGAAACCTGCCTATATATACAGCGCACCGGAGTCACCTAGTGCAG” stands 8520 fluorescence intensity (a.u.).
“AAGTTTGACCATTTCCACTAGTCAAAAGCTTGTCAGTAAACGGAGTCACCTAGTGCAG”: the binding signal is 8240 fluorescence intensity (a.u.).
Under “CTCATTTTTCATGCCCACTTTGCCACTCGACGCCTCAATTCGGAGTCACCTAGTGCAG” stands 9180 fluorescence intensity (a.u.).
Consider “GTGTAGTTCTTTTTTATTAGAATCCTATTTTTTTCTATTCCGGAGTCACCTAGTGCAG”, for which the binding signal was 10800 fluorescence intensity (a.u.).
